Drawing on PMC3279470, this text covers binding for one molecule.

These are yes or no findings as the source states them, for the method shown.

The target of this assay is T1, recombinant wild-type phosphoglycerate kinase 1 (PGK1) (human), P00558.
T1 chain: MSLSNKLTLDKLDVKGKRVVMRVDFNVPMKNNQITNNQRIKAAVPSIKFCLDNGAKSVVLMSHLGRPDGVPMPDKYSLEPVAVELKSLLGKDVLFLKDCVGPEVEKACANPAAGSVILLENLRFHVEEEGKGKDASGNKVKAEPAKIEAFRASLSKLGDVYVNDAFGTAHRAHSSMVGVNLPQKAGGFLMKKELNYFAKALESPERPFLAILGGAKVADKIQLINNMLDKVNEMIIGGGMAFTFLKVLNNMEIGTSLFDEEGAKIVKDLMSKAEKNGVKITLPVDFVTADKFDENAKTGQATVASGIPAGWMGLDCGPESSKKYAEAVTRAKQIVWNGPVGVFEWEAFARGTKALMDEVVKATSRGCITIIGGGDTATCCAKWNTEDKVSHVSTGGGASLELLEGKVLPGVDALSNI
Nature of the assay: SEC; analytical gel filtration on Superose 12 HR 10/30 in buffer A (20 mM Tris-HCl pH 8.0, 1 mM EDTA, 2 mM β-mercaptoethanol); 100 µl at 0.1 mg/ml; calibrated with aldolase, albumin, ovoalbumin, chimotrysinogen, ribonuclease; compared with 12% SDS-PAGE; both purified. The following applies: remark: other sources report otherwise.

B1: recombinant wild-type phosphoglycerate kinase 1 (PGK1), P00558-1 1-417 (enzyme)
chain: MSLSNKLTLDKLDVKGKRVVMRVDFNVPMKNNQITNNQRIKAAVPSIKFCLDNGAKSVVLMSHLGRPDGVPMPDKYSLEPVAVELKSLLGKDVLFLKDCVGPEVEKACANPAAGSVILLENLRFHVEEEGKGKDASGNKVKAEPAKIEAFRASLSKLGDVYVNDAFGTAHRAHSSMVGVNLPQKAGGFLMKKELNYFAKALESPERPFLAILGGAKVADKIQLINNMLDKVNEMIIGGGMAFTFLKVLNNMEIGTSLFDEEGAKIVKDLMSKAEKNGVKITLPVDFVTADKFDENAKTGQATVASGIPAGWMGLDCGPESSKKYAEAVTRAKQIVWNGPVGVFEWEAFARGTKALMDEVVKATSRGCITIIGGGDTATCCAKWNTEDKVSHVSTGGGASLELLEGKVLPGVDALSNI
For the molecule B1, the binding result was “no binding (tested: 0.1 mg/ml)”.
